This note sets out measurements from patent US20110294748A1 (Janssen / Centocor, published 2011).

These are yes or no findings as the source states them, for the method shown. Binding can be weak; no strength is given.

For this test, the target named is insulin receptor. The test can be described thus: phage ELISA, phage lysate. (In general: In an ELISA, binding on a coated surface is turned into a signal by an enzyme label.)

B1: phage clone 16 (peptide SEQ ID NO: 12 displayed on pIX phage) (peptide, not shown: large carriers)
peptide: AGCPSPMPPVDPGFYSAIVQLCRE
As for B1, the binding result was “binds”.

B2: phage clone 5 (peptide SEQ ID NO: 1 displayed on pIX phage) (peptide, not shown: large carriers)
peptide: TGCDFPELCRGCHP
In the case of B2, the binding entry is listed as “binds”.
